Results are given in words; binding and its absence hold for the method and conditions named. Binding seen in cells or lysates may run through a third protein. Some binding calls cover weakened binding; strength is not graded here.

Protein sequences, listed by entry. Tags and fused reporters are not part of them.
UniProt O70133: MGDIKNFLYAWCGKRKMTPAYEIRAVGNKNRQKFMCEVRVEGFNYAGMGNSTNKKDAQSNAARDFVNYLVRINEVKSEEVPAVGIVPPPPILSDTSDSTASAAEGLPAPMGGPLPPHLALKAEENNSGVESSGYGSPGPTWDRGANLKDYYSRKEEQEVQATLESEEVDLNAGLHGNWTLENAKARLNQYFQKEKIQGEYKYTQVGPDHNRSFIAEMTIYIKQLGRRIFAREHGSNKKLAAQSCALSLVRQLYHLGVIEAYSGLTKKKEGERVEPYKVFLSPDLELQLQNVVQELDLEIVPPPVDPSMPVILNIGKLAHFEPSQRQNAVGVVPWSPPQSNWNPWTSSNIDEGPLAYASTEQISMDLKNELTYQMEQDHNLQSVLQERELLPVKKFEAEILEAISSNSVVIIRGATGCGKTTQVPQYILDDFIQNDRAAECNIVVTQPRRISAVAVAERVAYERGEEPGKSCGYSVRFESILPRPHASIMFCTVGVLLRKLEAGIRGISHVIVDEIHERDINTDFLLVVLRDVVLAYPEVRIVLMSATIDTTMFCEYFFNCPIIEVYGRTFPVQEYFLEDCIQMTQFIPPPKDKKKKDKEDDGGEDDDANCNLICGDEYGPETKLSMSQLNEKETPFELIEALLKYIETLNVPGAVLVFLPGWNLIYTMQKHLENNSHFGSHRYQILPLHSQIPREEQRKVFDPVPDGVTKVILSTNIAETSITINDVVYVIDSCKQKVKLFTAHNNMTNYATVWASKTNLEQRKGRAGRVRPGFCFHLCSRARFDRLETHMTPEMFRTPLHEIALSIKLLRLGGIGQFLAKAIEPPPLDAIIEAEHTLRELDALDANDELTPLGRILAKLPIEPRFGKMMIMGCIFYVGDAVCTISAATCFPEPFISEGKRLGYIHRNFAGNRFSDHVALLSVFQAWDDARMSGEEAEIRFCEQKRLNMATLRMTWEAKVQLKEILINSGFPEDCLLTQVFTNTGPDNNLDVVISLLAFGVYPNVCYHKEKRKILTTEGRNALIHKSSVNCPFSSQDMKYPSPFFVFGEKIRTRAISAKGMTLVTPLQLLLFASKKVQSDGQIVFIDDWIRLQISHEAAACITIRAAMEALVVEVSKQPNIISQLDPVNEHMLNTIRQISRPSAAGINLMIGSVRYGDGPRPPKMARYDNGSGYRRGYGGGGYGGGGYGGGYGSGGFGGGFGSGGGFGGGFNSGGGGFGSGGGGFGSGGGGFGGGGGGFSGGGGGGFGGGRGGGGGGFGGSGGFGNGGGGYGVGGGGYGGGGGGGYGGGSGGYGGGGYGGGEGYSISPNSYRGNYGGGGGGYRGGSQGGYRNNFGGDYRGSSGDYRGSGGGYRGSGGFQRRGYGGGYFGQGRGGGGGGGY
UniProt Q9Z204: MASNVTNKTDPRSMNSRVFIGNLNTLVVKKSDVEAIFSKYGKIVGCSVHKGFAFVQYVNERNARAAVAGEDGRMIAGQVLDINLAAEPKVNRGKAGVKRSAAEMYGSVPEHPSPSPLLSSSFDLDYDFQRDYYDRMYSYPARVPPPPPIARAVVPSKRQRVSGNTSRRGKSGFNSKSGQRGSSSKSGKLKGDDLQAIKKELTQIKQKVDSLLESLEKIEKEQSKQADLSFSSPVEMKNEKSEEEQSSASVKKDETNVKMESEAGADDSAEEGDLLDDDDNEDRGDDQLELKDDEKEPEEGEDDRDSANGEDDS
UniProt Q61464: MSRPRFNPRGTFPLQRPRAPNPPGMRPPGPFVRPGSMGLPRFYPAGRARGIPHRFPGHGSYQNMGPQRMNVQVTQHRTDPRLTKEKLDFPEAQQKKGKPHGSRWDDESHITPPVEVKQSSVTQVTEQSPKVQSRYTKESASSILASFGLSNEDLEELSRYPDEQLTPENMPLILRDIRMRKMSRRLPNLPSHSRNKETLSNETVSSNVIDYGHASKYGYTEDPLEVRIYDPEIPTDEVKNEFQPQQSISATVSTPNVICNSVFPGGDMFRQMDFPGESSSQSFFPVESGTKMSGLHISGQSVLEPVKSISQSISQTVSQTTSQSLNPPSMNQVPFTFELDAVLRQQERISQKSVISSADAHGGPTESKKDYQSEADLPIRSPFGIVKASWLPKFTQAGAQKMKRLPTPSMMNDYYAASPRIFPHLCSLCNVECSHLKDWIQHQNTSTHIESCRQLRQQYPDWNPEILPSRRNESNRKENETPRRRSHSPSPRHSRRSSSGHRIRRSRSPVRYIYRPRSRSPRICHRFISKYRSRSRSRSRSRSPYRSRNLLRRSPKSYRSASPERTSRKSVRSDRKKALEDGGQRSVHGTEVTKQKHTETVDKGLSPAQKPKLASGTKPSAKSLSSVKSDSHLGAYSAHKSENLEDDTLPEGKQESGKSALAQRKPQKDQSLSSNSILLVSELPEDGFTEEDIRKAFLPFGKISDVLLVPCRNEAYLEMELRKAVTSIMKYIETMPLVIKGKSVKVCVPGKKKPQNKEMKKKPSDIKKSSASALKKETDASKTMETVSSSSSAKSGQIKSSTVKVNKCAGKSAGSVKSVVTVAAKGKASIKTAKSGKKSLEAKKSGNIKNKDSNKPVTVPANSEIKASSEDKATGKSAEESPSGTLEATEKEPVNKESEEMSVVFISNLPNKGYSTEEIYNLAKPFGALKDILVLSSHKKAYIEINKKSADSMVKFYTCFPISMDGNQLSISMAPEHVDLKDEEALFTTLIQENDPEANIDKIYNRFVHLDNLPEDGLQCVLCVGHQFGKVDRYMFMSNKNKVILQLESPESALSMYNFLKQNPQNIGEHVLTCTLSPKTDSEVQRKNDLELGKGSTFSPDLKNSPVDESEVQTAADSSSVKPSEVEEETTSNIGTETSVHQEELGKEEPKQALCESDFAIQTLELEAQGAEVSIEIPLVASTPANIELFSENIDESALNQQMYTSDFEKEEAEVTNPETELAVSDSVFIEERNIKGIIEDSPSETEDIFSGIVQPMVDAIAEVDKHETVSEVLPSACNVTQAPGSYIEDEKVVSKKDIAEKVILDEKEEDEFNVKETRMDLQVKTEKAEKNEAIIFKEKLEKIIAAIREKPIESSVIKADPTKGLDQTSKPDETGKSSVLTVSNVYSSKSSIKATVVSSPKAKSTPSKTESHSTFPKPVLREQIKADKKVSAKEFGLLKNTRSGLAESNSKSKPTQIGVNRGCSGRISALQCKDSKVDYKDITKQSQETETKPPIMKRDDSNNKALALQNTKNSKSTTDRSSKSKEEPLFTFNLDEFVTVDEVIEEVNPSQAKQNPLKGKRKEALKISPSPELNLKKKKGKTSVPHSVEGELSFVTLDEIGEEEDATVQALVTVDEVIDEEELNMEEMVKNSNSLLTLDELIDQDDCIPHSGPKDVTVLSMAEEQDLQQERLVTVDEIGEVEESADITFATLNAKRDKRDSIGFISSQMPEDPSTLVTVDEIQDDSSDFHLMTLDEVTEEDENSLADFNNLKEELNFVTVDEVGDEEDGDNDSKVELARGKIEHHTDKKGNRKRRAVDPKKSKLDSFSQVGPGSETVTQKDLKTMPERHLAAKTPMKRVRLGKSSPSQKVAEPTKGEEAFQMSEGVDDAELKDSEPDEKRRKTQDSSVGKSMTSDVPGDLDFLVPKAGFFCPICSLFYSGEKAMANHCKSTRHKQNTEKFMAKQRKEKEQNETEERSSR
UniProt O09106: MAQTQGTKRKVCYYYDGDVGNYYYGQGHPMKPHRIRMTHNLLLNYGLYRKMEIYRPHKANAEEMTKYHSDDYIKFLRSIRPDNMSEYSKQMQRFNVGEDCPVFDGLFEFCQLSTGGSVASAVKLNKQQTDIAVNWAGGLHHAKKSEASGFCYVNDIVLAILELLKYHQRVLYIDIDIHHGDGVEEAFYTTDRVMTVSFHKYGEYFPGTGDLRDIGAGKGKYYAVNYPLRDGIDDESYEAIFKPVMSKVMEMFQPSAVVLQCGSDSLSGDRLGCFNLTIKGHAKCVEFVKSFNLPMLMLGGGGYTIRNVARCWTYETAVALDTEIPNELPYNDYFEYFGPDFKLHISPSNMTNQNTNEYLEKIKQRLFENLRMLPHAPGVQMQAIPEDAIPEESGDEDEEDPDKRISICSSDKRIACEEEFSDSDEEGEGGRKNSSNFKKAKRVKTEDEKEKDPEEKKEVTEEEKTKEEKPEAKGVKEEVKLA

These results are taken from publication PMC6364870.

T1: SATB2 (mouse (endogenous in cortex)) (UniProt Q8VI24)
T1 sequence: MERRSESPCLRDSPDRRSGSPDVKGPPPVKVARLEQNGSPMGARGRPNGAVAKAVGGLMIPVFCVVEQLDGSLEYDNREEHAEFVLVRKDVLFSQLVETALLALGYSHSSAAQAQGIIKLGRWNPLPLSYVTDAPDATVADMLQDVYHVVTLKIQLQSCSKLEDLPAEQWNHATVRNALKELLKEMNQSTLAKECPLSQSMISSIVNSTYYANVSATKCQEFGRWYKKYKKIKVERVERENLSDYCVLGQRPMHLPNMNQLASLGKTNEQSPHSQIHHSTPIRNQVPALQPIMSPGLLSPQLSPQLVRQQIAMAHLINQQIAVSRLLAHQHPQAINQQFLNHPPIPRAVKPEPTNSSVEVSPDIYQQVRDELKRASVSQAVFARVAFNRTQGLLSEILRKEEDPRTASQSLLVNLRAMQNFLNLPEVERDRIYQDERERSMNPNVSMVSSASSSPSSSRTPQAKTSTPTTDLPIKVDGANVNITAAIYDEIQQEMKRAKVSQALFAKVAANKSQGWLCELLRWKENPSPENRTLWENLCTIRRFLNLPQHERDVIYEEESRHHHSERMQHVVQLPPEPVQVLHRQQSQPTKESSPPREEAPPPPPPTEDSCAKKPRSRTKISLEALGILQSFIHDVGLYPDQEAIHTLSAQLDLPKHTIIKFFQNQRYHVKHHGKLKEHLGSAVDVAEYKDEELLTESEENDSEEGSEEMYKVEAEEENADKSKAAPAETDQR

B1: Heterogeneous nuclear ribonucleoprotein L (HNRNPL) (protein, UniProt Q8R081 1-586)
chain: MSRRLLPRAEKRRRRLEQRQQPDEQLRRAGAMVKMAAAGGGGGGGRYYGGGNEGGRAPKRLKTENAGDQHGGGGGGGSGAAGGGGGENYDDPHKTPASPVVHIRGLIDGVVEADLVEALQEFGPISYVVVMPKKRQALVEFEDVLGACNAVNYAADNQIYIAGHPAFVNYSTSQKISRPGDSDDSRSVNSVLLFTILNPIYSITTDVLYTICNPCGPVQRIVIFRKNGVQAMVEFDSVQSAQRAKASLNGADIYSGCCTLKIEYAKPTRLNVFKNDQDTWDYTNPNLSGQGDPGSNPNKRQRQPPLLGDHPAEYGGPHGGYHSHYHDEGYGPPPPHYEGRRMGPPVGGHRRGPSRYGPQYGHPPPPPPPPDYGPHADSPVLMVYGLDQSKMNCDRVFNVFCLYGNVEKVKFMKSKPGAAMVEMADGYAVDRAITHLNNNFMFGQKMNVCVSKQPAIMPGQSYGLEDGSCSYKDFSESRNNRFSTPEQAAKNRIQHPSNVLHFFNAPLEVTEENFFEICDELGVKRPTSVKVFSGKSERSSSGLLEWDSKSDALETLGFLNHYQMKNPNGPYPYTLKLCFSTAQHAS
B2: HNRNPL-like (protein, UniProt Q921F4 1-591)
chain: MSSSSSSSPKEETYEEDREFESQAKRLKTEEGEIVYSAEESENRQEATPQAGSDSDSGGGDGGDGDGGSGGGGDGEEGEGGEEGDEGDGDEGGSGGDEGGSGGGPRSMPLSTEGGGSHHKVSVSPVVHVRGLCESVVEADLVEALEKFGTICYVMMMPFKRQALVEFENIDSAKECVTFAADVPVYIAGQQAFFNYSTSKRITRPGNTDDPSGGNKVLLLSIQNPLYPITVDVLYTVCNPVGKVQRIVIFKRNGIQAMVEFESVLCAQKAKAALNGADIYAGCCTLKIEYARPTRLNVIRNDNDSWDYTKPYLGRRDRGKGRQRQAILGDHPSSFRHDGYGSHGPLLPLPSRYRMGSRDTPELVAYPLPQASSSYMHGGSPSGSVVMVSGLHQLKMNCSRVFNLFCLYGNIEKVKFMKTIPGTALVEMGDEYAVERAVTHLNNVKLFGKRLNVCVSKQHSVVPSQIFELEDGTSSYKDFAMSKNNRFTSAGQASKNIIQPPSCVLHYYNVPLCVTEETFTKLCNDHEVLPFIKYKVFDAKASAKTLSGLLEWKCKTDAVEALTALNHYQIRVPNGSNPYTLKLCFSTSSHL
B3: BAF (barrier-to-autointegration factor) (protein, UniProt O54962 1-89)
chain: MTTSQKHRDFVAEPMGEKPVGSLAGIGDVLSKRLEERGFDKAYVVLGQFLVLKKDEDLFREWLKDTCGANAKQSRDCFGCLREWCDAFL
B4: CHMP3 (protein, UniProt Q9CQ10 1-224)
chain: MGLFGKTQEKPPKELVNEWSLKIRKEMRVVDRQIRDIQREEEKVKRSVKDAAKKGQKEVCVVLAKEMIRSRKAVSKLYASKAHMNSVLMGMKNQLAVLRVAGSLQKSTEVMKAMQSLVKIPEIQATMRELSKEMMKAGIIEEMLEDTFESMDDQEEMEEAAEMEIDRILFEITAGALGKAPSKVTDALPEPEPAGAMAASEEGEEEEDEEDLEAMQSRLATLRS

This test has as its target T1, SATB2 (mouse (endogenous in cortex)). The test can be described thus: co-IP; anti-SATB2 on protein G Dynabeads, 500 μg of cortical lysate of control and SATB2-deficient mice, overnight 4°C; immunoblot with antibodies against the partners. For orientation: Immunoblotting shows a protein as a band on a membrane.
For the molecule “ATP-dependent RNA helicase A (DHX9) (from UniProt O70133 1-1380)”, the binding entry is recorded as “binds”.
Turning to HNRNPC (from UniProt Q9Z204 1-313), the binding entry is listed as “binds”.
As for ZNF638 (from UniProt Q61464 1-1960), the entry is “binds”; as for “histone deacetylase 1 (HDAC1) (from UniProt O09106 1-482)”, “binds”.
As for B1, the entry is “binds”; as for B2, “binds”; as for B3, “binds”.
As for B4, the entry is “binds”.
